Test results reported in PubChem BioAssay (NCATS).
Inconclusive results, whose numbers are uncertain, are shown with a selection of clear calls. Potencies beside an inconclusive call are fits to weak or partial responses and may not hold up. The source made the active and inactive calls. Calls follow the shape of the dose curve; as a rule, active = well fitted cell-killing curve with a large enough effect; inconclusive = small, poorly fitted or top-dose-only effect; inactive = flat fitted curve, though single readings scatter.

Test: Identifying Small Molecule Inhibitors of Pancreatic Cancer Stem Cells (A278, Adherent) (AID 1259361); also: nearly all actives have a fitted effect of over 35% in size
Settings: viability (% of control): at 46.1 µM (top of the series) unless noted
Outline: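 Luminescent ATP readout (CellTiter-Glo) quantifies surviving cells after a 48 h drug incubation. Normalization uses DMSO wells as no inhibition and media-only wells as full inhibition; bortezomib served as positive control.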

Question: With COc1cc2c(N3CCN(C(=O)Nc4ccc(OC(C)C)cc4)CC3)ncnc2cc1OCCCN1CCCCC1 as the compound, how does the IC50 (viability decrease) read?
Answer: Its IC50 (viability decrease) is inconclusive: 23.5 µM [cytotoxic, single point].

Question: With CC(C)(C)c1cc(NC(=O)Nc2ccc(-c3cn4c(n3)sc3cc(OCCN5CCOCC5)ccc34)cc2)no1 as the compound, how does the IC50 (viability decrease) read?
Answer: The IC50 (viability decrease) was active: 10.5 µM.

Question: With CCc1ccc(CCOc2ccc(CC3SC(=O)NC3=O)cc2)nc1 (stereo not given) as the compound, how does the IC50 (viability decrease) read?
Answer: The IC50 (viability decrease) was inconclusive: 20.9 µM [cytotoxic, partial curve].

Question: With CC(C)(O)CCc1ccc(OCc2cc(-c3cccc(OC(F)F)c3)c3ncccc3c2)cc1 as the compound, how does the IC50 (viability decrease) read?
Answer: The IC50 (viability decrease) was inconclusive: 23.5 µM [cytotoxic, single point].

Question: For CC(C)c1ccccc1Cc1cc(C(=O)Nc2ccc(S(=O)(=O)c3ccccc3C(C)(C)C)cc2)c(O)c(O)c1O, which IC50 (viability decrease) is on record?
Answer: Its IC50 (viability decrease) is inconclusive: 29.6 µM [cytotoxic, single point].
